From the supplement of paper PMC6411743
± gives the standard deviation of the averaged measurements. The entries are a selection whose mix differs from that of the whole data set.

By UniProt entry, the sequences of proteins in these tests, tags left out. Where a name states a change or a piece, a line headed by the entry shows the natural chain unless it says otherwise.
UniProt Q9BT23: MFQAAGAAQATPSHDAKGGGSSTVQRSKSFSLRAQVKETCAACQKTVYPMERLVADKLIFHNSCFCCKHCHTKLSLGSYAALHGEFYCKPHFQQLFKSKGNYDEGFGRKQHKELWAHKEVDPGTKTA
UniProt Q9BYT8, whole entry, looked up: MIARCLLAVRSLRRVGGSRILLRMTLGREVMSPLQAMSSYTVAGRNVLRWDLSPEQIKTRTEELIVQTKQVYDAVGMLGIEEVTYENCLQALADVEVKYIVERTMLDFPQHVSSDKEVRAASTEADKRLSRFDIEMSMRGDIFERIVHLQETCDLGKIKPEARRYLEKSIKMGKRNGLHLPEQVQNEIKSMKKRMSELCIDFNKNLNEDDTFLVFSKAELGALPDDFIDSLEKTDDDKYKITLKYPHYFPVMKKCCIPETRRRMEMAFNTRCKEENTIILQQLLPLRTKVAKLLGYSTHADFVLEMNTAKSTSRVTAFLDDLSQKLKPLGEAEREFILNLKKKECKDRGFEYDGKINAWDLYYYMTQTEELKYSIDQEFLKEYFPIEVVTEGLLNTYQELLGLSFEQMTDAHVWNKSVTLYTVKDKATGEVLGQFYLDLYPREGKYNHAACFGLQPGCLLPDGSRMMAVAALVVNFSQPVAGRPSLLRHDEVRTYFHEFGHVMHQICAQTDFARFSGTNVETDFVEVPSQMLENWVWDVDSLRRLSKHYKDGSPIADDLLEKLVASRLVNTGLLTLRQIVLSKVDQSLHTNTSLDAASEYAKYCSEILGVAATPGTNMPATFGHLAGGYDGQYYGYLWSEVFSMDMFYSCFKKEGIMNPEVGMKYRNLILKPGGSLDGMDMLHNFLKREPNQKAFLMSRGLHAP
UniProt Q96QZ7: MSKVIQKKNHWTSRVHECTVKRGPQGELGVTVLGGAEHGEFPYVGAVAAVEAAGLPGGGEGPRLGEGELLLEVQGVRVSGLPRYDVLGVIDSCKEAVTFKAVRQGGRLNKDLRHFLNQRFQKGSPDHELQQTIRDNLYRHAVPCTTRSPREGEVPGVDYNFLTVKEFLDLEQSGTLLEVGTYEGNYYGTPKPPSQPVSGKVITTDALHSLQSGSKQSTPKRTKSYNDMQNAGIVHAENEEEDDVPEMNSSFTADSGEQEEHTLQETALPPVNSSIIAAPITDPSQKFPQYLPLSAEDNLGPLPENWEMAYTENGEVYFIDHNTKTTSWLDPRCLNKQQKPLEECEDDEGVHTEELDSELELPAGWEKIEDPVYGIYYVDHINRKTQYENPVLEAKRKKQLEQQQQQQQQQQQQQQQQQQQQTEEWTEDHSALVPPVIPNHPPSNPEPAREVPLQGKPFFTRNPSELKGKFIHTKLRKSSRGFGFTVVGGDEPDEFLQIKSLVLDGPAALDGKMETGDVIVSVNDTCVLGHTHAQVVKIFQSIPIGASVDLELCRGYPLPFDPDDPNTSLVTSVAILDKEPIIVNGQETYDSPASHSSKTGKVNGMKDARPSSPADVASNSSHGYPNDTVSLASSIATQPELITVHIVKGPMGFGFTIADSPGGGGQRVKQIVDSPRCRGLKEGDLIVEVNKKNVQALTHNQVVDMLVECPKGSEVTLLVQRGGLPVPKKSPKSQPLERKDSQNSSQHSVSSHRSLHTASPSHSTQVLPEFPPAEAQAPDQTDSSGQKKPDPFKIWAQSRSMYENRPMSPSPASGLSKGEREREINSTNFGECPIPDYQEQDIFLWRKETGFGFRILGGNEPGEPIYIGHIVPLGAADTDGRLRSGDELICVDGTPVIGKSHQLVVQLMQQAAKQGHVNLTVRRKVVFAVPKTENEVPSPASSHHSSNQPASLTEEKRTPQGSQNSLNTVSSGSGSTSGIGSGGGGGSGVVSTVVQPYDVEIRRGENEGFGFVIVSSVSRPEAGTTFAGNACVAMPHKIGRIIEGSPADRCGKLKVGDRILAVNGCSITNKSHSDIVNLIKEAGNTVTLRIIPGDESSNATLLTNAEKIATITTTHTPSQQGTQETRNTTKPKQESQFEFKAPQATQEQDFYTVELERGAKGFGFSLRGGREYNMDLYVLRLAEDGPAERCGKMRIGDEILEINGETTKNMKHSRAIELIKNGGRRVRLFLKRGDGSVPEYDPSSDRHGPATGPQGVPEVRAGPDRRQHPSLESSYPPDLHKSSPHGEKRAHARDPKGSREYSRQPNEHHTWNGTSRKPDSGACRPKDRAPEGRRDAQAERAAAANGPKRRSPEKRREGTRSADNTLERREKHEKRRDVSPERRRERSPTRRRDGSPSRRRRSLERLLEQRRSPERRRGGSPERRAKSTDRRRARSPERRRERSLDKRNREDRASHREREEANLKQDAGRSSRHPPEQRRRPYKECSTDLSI
UniProt Q9BV19: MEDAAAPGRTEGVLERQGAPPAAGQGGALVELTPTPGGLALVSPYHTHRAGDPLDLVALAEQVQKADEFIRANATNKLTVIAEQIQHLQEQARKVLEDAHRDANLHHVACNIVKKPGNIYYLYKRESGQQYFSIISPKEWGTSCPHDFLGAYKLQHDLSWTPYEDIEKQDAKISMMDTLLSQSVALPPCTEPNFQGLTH
UniProt Q9BT73: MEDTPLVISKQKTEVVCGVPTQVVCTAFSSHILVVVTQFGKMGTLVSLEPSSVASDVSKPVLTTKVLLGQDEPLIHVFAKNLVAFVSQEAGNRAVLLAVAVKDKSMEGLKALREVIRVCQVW
UniProt Q99797: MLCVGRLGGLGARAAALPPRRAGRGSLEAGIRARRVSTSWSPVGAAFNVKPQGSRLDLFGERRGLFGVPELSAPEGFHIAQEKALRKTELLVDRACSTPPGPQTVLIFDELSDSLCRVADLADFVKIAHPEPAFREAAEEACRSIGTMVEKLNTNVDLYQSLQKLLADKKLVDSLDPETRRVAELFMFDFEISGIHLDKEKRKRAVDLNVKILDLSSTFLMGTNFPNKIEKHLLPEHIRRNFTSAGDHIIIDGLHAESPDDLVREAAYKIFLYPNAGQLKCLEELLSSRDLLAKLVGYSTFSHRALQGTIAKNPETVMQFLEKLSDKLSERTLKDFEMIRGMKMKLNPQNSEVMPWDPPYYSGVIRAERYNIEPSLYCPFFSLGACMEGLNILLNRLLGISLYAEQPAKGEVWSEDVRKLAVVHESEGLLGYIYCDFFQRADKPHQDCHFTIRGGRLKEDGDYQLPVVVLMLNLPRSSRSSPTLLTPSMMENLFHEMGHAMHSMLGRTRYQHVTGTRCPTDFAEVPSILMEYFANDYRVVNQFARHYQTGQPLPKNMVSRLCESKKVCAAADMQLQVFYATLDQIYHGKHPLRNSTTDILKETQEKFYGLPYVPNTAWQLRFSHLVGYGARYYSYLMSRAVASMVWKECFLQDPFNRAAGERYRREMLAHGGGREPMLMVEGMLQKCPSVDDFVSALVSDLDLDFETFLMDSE
UniProt Q9BWT6: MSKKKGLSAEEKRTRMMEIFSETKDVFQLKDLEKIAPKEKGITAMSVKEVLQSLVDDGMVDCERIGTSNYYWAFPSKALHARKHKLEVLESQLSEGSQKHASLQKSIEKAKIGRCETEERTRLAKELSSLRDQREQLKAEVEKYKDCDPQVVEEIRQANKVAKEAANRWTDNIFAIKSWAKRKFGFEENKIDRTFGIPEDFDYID
UniProt Q9BQ39: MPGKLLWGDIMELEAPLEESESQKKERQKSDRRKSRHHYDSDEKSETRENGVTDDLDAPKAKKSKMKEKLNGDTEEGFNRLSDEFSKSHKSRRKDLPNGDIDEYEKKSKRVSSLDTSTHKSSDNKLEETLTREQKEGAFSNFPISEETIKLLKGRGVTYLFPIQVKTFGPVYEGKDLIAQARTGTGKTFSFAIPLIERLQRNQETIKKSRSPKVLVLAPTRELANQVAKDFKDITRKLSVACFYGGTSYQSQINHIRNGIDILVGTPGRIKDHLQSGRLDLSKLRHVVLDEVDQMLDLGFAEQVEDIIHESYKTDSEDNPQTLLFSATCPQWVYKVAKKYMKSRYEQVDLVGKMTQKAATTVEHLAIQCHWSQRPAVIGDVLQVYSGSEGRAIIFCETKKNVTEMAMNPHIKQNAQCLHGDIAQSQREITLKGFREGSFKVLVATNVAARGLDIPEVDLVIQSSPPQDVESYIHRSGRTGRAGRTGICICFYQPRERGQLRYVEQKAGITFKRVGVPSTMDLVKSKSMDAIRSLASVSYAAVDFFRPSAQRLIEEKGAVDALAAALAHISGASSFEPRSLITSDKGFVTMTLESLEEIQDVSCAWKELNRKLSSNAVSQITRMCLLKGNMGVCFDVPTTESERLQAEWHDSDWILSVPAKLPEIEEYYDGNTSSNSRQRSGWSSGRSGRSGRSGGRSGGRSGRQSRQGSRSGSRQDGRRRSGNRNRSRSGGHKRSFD
UniProt Q9BU76: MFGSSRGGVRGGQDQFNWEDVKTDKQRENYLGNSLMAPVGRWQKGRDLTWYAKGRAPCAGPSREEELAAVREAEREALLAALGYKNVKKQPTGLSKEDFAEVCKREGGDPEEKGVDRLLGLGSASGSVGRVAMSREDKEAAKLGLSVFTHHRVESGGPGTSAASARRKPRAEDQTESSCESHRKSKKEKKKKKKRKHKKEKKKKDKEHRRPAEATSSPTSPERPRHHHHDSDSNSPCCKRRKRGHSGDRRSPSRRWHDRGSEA
UniProt Q9BUB5: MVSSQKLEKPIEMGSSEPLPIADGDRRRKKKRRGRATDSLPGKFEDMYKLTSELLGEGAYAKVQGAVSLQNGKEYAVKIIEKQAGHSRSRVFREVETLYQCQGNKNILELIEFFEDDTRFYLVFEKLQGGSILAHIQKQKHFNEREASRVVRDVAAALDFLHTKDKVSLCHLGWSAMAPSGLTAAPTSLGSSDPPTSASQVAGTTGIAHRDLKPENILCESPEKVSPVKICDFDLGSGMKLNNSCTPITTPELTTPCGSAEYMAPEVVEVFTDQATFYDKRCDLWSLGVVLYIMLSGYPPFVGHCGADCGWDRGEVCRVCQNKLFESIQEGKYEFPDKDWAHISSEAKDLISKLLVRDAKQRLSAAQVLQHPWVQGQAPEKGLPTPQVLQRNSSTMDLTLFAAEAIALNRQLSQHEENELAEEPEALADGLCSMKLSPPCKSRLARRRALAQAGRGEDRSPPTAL
UniProt Q9BT09: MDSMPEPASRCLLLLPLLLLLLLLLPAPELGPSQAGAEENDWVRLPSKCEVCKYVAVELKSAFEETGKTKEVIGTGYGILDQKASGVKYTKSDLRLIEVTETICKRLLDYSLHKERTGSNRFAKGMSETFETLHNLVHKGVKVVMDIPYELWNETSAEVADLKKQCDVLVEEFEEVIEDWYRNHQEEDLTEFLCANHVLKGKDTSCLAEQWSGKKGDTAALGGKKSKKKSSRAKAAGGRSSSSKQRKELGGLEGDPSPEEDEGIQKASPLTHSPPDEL
UniProt Q9BXI6: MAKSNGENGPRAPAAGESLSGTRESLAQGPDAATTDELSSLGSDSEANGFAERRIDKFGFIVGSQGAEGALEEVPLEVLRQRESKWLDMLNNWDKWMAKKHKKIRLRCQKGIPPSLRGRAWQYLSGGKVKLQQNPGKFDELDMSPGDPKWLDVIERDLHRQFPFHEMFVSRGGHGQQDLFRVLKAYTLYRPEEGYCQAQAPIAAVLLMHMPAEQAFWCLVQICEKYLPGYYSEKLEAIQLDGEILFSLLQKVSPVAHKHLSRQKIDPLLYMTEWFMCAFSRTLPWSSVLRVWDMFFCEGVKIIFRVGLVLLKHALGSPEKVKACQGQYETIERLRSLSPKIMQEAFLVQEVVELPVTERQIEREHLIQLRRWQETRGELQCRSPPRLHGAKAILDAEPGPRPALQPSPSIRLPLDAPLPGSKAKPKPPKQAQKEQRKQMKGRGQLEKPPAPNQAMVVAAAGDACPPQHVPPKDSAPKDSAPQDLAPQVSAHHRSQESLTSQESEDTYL
UniProt Q96S55: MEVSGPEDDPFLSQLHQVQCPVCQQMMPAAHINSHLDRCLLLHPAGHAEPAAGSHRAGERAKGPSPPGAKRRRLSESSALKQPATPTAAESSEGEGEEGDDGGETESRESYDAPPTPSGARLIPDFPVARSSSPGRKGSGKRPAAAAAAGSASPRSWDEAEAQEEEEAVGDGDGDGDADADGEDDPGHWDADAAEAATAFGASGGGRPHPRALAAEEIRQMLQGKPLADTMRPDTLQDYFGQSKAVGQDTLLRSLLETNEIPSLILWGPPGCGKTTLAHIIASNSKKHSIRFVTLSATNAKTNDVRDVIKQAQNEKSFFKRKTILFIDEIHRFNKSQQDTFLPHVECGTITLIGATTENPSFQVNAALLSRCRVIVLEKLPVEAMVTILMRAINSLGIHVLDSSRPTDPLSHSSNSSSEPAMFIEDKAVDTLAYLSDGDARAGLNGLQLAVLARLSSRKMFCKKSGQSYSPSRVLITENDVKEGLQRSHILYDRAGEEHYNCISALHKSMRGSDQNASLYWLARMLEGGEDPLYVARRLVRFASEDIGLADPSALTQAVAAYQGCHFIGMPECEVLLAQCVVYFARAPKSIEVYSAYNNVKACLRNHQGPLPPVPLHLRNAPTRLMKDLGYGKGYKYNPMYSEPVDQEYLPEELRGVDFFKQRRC

Compound: Nc1ncnc2c1ncn2[C@@H]1O[C@H](COP(=O)(O)OP(=O)(O)NP(=O)(O)O)[C@@H](O)[C@H]1O [adenylyl imidodiphosphate]
Assay: NP40-soluble protein abundance relative to vehicle (solubility fold change) (ratio); higher = more soluble protein in presence of AMP-PNP
Conditions: concentration: 8mM
Summary of the method: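 Jurkat crude lysate prepared with a Dounce homogeniser was treated at eight concentrations spanning 0.1 to 10 mM, 10 min at room temperature then 3 min at 37 °C. Solubilisation with 0.8% NP40 and benzonase and ultracentrifugation preceded TMT labelling of the supernatant for LC-MS/MS. Fold change against the detergent-processed vehicle was determined per replicate from vsn-normalised intensities, across three independent experiments.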

Target | NP40-soluble protein abundance
KATNB1 (UniProt Q9BVA0) | 1.01 ± 0.035
LIMD2 (UniProt Q9BT23) | 1.12 ± 0.061
NLN (UniProt Q9BYT8) | 0.977 ± 0.015
UniProt Q9BTX1 and related entries | 1.03 ± 0.041
UniProt Q96QZ7 and related entries | 1.01 ± 0.045
C1orf50 (UniProt Q9BV19) | 0.98 ± 0.03
PSMG3 (UniProt Q9BT73) | 1.022 ± 0.0097
MIPEP (UniProt Q99797) | 0.978 ± 0.017
UniProt Q96SU4 and related entries | 0.974 ± 0.015
UniProt Q9BV73 and related entries | 0.963 ± 0.034
MND1 (UniProt Q9BWT6) | 0.98 ± 0.023
FUT8 (UniProt Q9BYC5) | 0.979 ± 0.031

No new results follow: an excerpt of the list.
Target | NP40-soluble protein abundance
UniProt Q96SU4 and related entries | 0.974 ± 0.015
UniProt Q9BV73 and related entries | 0.963 ± 0.034

Same assay, conditions: concentration: 10mM

Target | NP40-soluble protein abundance
UniProt Q9BQ39 and related entries | 1.5 ± 0.14
UniProt Q9BT25 and related entries | 0.952 ± 0.025
TRMT61B (UniProt Q9BVS5) | 0.989 ± 0.053
UniProt Q9BQI3 and related entries | 1.01 ± 0.037
UniProt Q9BU76 and related entries | 0.989 ± 0.038
UniProt Q9BUB5 and related entries | 1.05 ± 0.032
CNPY3 (UniProt Q9BT09) | 0.947 ± 0.048
CCT7 (UniProt Q99832) | 0.963 ± 0.18
UniProt Q9BXI6 and related entries | 1.01 ± 0.024
UniProt Q96S55 and related entries | 0.945 ± 0.077
UniProt Q9BWS9 and related entries | 0.945 ± 0.016
UniProt Q9BTV5 and related entries | 1.01 ± 0.053
UniProt Q96ST2 and related entries | 1.08 ± 0.058
